From patent US20140314780A1, “Compositions Using Antibodies Directed to GPNMB and Uses Thereof” (Celldex Therapeutics, Inc., priority 2008, published 2014)
At least one compound was matched to its structure with a doubt left.

Tested on: GPNMB
Assay: Immunoblotting for GPNMB on whole-cell lysates of cancer cell lines after drug exposure
Type: cell-based, human
Conditions: for increase of GPNMB expression in the screen: determined by immunoblotting and/or flow cytometry analysis
Source text: Cancer cell lines were of human origin and were obtained from the American Type Culture Collection (Manassas, Va.) and from the National Cancer Institute (Bethesda, Md.) and cultured in RPMI-1640 supplemented with 10% FBS (growth media). Sources of reagents were as follows: RAFKi (553013), MEKi (U0126), MEKi (PD98059), MEKi (444939), ERKi (FR180204), p38 MAPKi (SB202190), p38 MAPKi (SB203580), aurora kinase inhibitor (189404), JNK inhibitor (420119), MMPi (GM6001) were from EMD Chemicals (San Diego, Calif.). ERKi (A6355), RAFKi: (GW5074), ammonium chloride (NH4Cl), chloroquine, monensin, cyclohexamide and emetine were from Sigma (Saint Louis, Mo.). HSP90i (geldanamycin) was from AG Scientific (San Diego, Calif.) and imatinib (Gleevec) was purchased from a pharmacy.
Cells were seeded in 6-well tissue culture dishes at a subconfluent density and allowed to attach overnight. For harvesting cell lysates, media was removed, cells were briefly washed with serum-free media and then 1× Tris-glycine SDS sample buffer (Invitrogen, Carlsbad, Calif.) supplemented with 10 mM dithiothreitol (Sigma) was added directly to the wells. Cell lysates were then collected and boiled for 10 minutes. For preparing conditioned media, drug treatments were performed in a minimum volume of growth media (1.5 mL/well). Following 48 hours of incubation, conditioned media was collected, briefly microfuged, mixed with an equal volume of 2× Tris-glycine SDS sample buffer (Invitrogen, Carlsbad, Calif.) supplemented with 20 mM dithiothreitol (Sigma) and boiled for 10 minutes. For cell lysates, samples were quantified and an equal quantity of protein/lane was resolved on 4-20% gradient polyacrylamide gels (Invitrogen) and then transferred to nitrocellulose filters (Invitrogen). The volume of conditioned media loaded/lane was adjusted based on the protein concentration determined in the respective cell lysates. Immunoblotting was performed using standard procedures and the following primary antibodies: MARTI (sc-20032), TYRP2 (sc-25544), TYRP1 (sc-25543), PMEL17 (sc-15010), MAGEA1 (sc-20033), MCSP (sc-20162), MTf (sc-26651), MCAM (sc-18942), pp-ERK (sc-7976) and ERK (sc-94) (preceding antibodies were purchased from Santa Cruz Biotechnologies, Santa Cruz, Calif.), GPNMB (AF2550; R & D Systems, Minneapolis Minn.), actin (A5060; Sigma). Following incubation with the appropriate horseradish peroxidase-conjugated secondary antibodies, enhanced chemiluminescence (GE Healthcare, Chalfont St. Giles, United Kingdom) was used for detection.

| SMILES | GPNMB expression (immunoblotting) (A375 melanoma cells, 24 hours exposure (FIG. 2A)) | increase of GPNMB expression in the screen |
| --- | --- | --- |
| COC1=C2C[C@@H](C)C[C@H](OC)[C@H](O)[C@@H](C)/C=C(\C)[C@H](OC(N)=O)[C@@H](OC)/C=C\C=C(/C)C(=O)NC(=CC1=O)C2=O [geldanamycin] | relatively weak | – |
| Nc1ncn([C@H]2C[C@H](O)[C@@H](CO)O2)c(=O)n1 [decitabine] | – | ineffective |
| CN(C)/N=N/c1[nH]cnc1C(N)=O [dacarbazine] | – | ineffective |
| CO[C@H]1C[C@@H]2CC[C@@H](C)[C@@](O)(O2)C(=O)C(=O)N2CCCC[C@H]2C(=O)O[C@H]([C@H](C)C[C@@H]2CC[C@@H](O)[C@H](OC)C2)CC(=O)[C@H](C)/C=C(\C)[C@@H](O)[C@@H](OC)C(=O)[C@H](C)C[C@H](C)/C=C/C=C/C=C/1C [rapamycin] | – | ineffective |
